According to the supplement of paper PMC3334620:
Whole data set: some 33,000 sequences, median “E-score (-0.5 to 0.5)” near -0.016, cut for the highest 2% near 0.3. The list shows a part of the results.

molecular target: T1, Yer184c (UniProt P39961); experiment: PBM E-score (8-mer binding enrichment) (E-score (-0.5 to 0.5)); higher = stronger / more preferred TF binding; conditions: protein concentration: 100 nM; construct: GST-full length
T1 sequence: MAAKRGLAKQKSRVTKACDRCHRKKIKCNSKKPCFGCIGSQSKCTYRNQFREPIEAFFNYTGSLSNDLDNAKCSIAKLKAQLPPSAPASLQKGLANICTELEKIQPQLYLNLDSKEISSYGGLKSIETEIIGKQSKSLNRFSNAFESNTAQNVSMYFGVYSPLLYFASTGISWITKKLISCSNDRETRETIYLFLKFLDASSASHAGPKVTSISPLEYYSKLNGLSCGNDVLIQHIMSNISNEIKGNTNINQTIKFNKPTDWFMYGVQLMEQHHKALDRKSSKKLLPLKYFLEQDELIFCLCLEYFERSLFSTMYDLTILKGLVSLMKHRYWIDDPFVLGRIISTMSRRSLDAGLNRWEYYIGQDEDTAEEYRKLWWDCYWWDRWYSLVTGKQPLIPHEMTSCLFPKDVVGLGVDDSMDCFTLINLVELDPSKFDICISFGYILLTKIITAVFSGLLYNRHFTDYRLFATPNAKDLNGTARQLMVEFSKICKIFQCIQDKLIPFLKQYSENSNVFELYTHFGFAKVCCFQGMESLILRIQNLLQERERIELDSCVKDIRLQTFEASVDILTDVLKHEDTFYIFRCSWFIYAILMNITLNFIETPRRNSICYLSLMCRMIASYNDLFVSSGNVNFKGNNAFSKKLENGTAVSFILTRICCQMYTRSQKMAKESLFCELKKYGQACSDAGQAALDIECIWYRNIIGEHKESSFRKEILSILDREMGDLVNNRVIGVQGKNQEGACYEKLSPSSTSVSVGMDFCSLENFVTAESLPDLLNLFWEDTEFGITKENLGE
Experimental: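 Universal 'all 10-mer' protein binding microarrays (Agilent AMADID 015681) probed with GST-tagged S. cerevisiae TFs (full-length or DBD) made by in vitro transcription/translation (PURExpress), about 100-200 nM. Bound TF was detected with fluorescent anti-GST. Each ungapped 8-mer (which stands for itself and its reverse complement) is scored by the PBM enrichment score (E-score), a modified Wilcoxon-Mann-Whitney statistic from -0.5 to +0.5, computed with the Universal PBM Analysis Suite. Scale: above 0.35 generally sequence-specific binding.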

| Sequence | PBM E-score |
| --- | --- |
| AATCGGGC | 0.0528 |
| CGACGGGC | 0.0443 |
| CATTCGCG | -0.0115 |
| CTAACGGC | 0.207 |
| ACAATCCA | 0.0596 |
| AACTTAGC | -0.0959 |
| AGATAAAG | 0.0667 |
| ATTTAAAT | 0.243 |
| GGATTGCC | 0.00854 |
| ATGACTCG | -0.0759 |
| ACACGAGC | -0.069 |
| CTGGGACC | -0.278 |
| CCGCGATC | 0.0479 |
| CATTCCAC | -0.179 |
| CTGCTCAA | -0.0916 |
| GGCAAGCA | -0.114 |
| ACTGTGAC | -0.0772 |
| AACCATAG | 0.0864 |
| GGCTTAGA | -0.186 |
| AACTCCAG | -0.214 |
| ACTTCACT | -0.0893 |
| AGTTGGCA | -0.103 |

| Sequence | PBM E-score |
| --- | --- |
| AATAAGGA | -0.121 |
| ATTTAAAG | 0.302 |
| GCAATGAA | 0.22 |
| GTGATAGA | -0.15 |
| GCGGAAGC | 0.105 |
| ACTATCGG | 0.112 |
| CAATGTCA | 0.0764 |
| ACGTAATC | -0.113 |
| CTTCCGTA | 0.322 |
| TCACGGCA | 0.096 |
| CCGAGGCG | 0.171 |
| CCACATCA | -0.0682 |
| ACTCTGTG | 0.0457 |
| ACCCCTGA | -0.195 |
| ATGGATTC | 0.0188 |
| AACCCCGG | 0.071 |
| AAGGTCAT | -0.106 |
| AATTGAGT | 0.152 |
| CGGTGCCC | 0.0372 |
| CTGTAACA | -0.171 |
| AAAAAAGT | 0.126 |
| GGATGACA | 0.0539 |

Another view of part of the listing above.
TCACGGCA
  PBM E-score: 0.096
AATTGAGT
  PBM E-score: 0.152

Continuation:

| Sequence | PBM E-score |
| --- | --- |
| ATCCAAGG | -0.0413 |
| CTTAGTTA | 0.0782 |
| ACAGTCGG | 0.145 |
| AGTCCTAA | -0.0699 |
| TAACACGA | 0.171 |
| TGGACTAA | -0.00992 |
| ACACACGT | -0.0782 |
| AGCAAAAA | 0.126 |
| CGGACTGA | 0.0412 |
| GTAACACA | 0.0912 |
| AACAGTAG | 0.0519 |
| CGCCCCTA | -0.133 |
| CAAGAGAA | 0.136 |
| ACGACGTC | -0.253 |
| CGTACTGA | 0.0516 |
| CGATCGGC | 0.196 |
| GGACTAAA | 0.105 |
| AAAGTCGC | 0.184 |
| AATCAGAG | -0.0887 |
| ATCTATCG | -0.0264 |
| ACGGAGCT | -0.0489 |
| ATTTTCTG | 0.0877 |

| Sequence | PBM E-score |
| --- | --- |
| AAGCCCCA | -0.302 |
| ATAACTGC | 0.0353 |
| AGCAAGTC | -0.143 |
| ACAGCACA | 0.0855 |
| CGGCTTTA | 0.264 |
| GCCCCGCA | -0.268 |
| ACTTAGCT | -0.246 |
| ATCTGTAA | 0.0139 |
| AACTAACG | 0.161 |
| ACCTGTCT | -0.247 |
| GCCTAGGA | -0.182 |
| CAATTGAG | 0.0961 |
| CTGCTTGC | -0.0904 |
| ACACCCCG | -0.197 |
| ATGGGCAG | -0.201 |
| CCCGAAGA | 0.105 |
| CCAAACGA | 0.015 |
| TACGGCCA | -0.1 |
| GCGAGAAC | 0.0561 |
| GCATCCGA | 0.176 |

Retrieved one by one from above:

| Sequence | PBM E-score |
| --- | --- |
| GCGAGAAC | 0.0561 |
| ACTTAGCT | -0.246 |
| AGCAAGTC | -0.143 |
| ATCTGTAA | 0.0139 |
